The record followed here is PubChem BioAssay AID1508600 (Functional Genomics Laboratory (NCATS/FGL), 2020).

In all, about 53,000 sequences went through this assay and about 3,700 (7%) were called active.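 How the source made its calls: active means gene knockdowns whose robust z-score for IL-1 alpha signal is at least 2 or at most -2, so actives lie on both sides; inactive means the rest.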 The list shows a part of the results.

A short description of the test: Components of the Cytosolic LPS Sensing Pathway: Gene Identification via Genome-wide siRNA Screen.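 Further: robust z of the log signal after scaling to non-targeting control siRNA wells of the plate.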 To be noted: RAW264.7 macrophages, IL-1a HTRF, actives lie on both sides, screened at 100 nM (by protocol), cells primed 5 h with Pam3CSK4 first. The procedure, abridged: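 Using IL-1a HTRF as read-out, the screen measured release from RAW264.7 cells after 48h siRNA knockdown (100 nM), 5 h Pam3CSK4 priming and 24 h cytosolic LipidA. Values were expressed relative to negative-control wells as robust z-scores.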
Regarding GCUCUACCUUCGCUGGAAATT against Slc7a6, the z-score is active: 2.17.
Then GCGGUUCGCAUUUGUGAUGTT against Efl1, with inactive: -0.493; and GCACUUACCCACUCUGAACTT against Mrtfb, with inactive: -1.16.
For GGCACAGACGGAUCAACAGTT against Clcn3, the z-score is inactive: -0.725.
Consider GGCAGUUGUUAAAAUCUGCTT against Asnsd1, for which the z-score was inactive: 0.471.
Regarding GGAAAUACGGCAGAACCCUTT against Kcnk9, the z-score is active: -2.54.
For the sequence CCUACUCAAAUGAAGUUGUTT against Cdk17, the z-score is inactive: -0.384.
In the case of CGCAACAGCAAAUCAUCAGTT against Ap3s1, the z-score was inactive: 0.0839.
Then GGAGAAGCUAAGUAACUUCTT against Med19, with inactive: 0.5.
GGAUCUCUCACUGAUGCCATT against Itprid2: the z-score was inactive: -0.608.
Regarding GGUGUAAGACGUGUGGAGATT against Yju2, the z-score was inactive: -0.277.
For GGCAGCAGCACUGAUUACUTT against Gjc2 the value was active: -2.17; for GCUUAACAAUUUCUCCCGCTT against Spef2, inactive: 0.985.
As for CGUGAACAUUGACCCAGAATT against Cd300ld3, the z-score was inactive: 1.23.
Consider GGUACUUCACAAUGGACAGTT against Zcchc9, for which the z-score is inactive: 0.951.
In the case of GGAACUGGAAUCAAGACCATT against Smg8, the z-score was inactive: -1.09.
With GGAUUAUGGGAGAUAUAAATT against Hapln1, the z-score is inactive: -0.672.
As to GGAAAUUGGUCCAGUUAUUTT against Magee1, the z-score was inactive: 1.37.
Consider GCUCUUAAAAACUCAGCUUTT against Gpat3, for which the z-score is inactive: -0.0726.
For GGAGCAUCCUGUUCUUCUATT against Actr1b, the z-score was inactive: 0.233.
Turning to GGGCAGUCUGAUAGAGGAUTT against Adam30, the z-score is inactive: -0.632.
For the sequence GGAUGAUCCAAGCAAUUGATT against Adcy2, the z-score is inactive: -0.316.
Regarding CGUGGAACCUGAAUAAUGATT against Aipl1, the z-score was inactive: 0.975.
With ACUUCACCAUGGUACCCGGTT against Tspo, the z-score was inactive: 1.06.
Then GACUUCUUCCUUUGCUAACTT against Cd1d2, with inactive: 0.416; and GGACUGCUACUUUUAUUUUTT against Serpinb9e, with inactive: 1.1; and GUUAUCAGGAAGGAAAGCCTT against Sdhaf4, with inactive: 0.248.
With GCUGUCGAUAGAAAAAAUCTT against Scml2, the z-score is inactive: 0.566.
For CCCAUACAAAGCACUUACATT against Otub1 the value was inactive: 0.589; for GGAAGUGGUAACUGUGACATT against Cmtm2a, inactive: -0.433.
For GGAGGGCAGAUCUACGAUGTT against Aars, the z-score is inactive: 0.182.
On to GGUCUUACUCAAAAACCAATT against Tmem268, for which the z-score was inactive: -0.95.
As for GGACUCUCCCAAGUGCAAUTT against Pla2g10, the z-score is inactive: 0.113.
CCAUUAACUCUUUGAGUAUTT against Omg: the z-score is inactive: 0.321.
For GGAGUUAGAGCUGAGGUUATT against Cela1 the value was inactive: 0.633; for GGCUGCAUGACCCAAUUGUTT against Olfr1221, inactive: 0.812; for GGGUCUUCAGUAUUAACACTT against Yae1d1, active: 2.62.
Then GGCUUGAAUGCCACAGCUGTT against Slc26a6, with inactive: -0.104; and CCCUAAGGAUGGUAUAUUUTT against Gm11507, with inactive: -0.0561.
For the sequence GGCCAAAAAGGAGGCACCATT against Rps15, the z-score is inactive: 0.662.
Consider GGCUAUCCAGAGAUACGUGTT against Snrnp25, for which the z-score was inactive: -0.571.
For the sequence CCUAACUGAAUUUUUCGUGTT against Cse1l, the z-score is inactive: -1.14.
Consider GGGCUGUACUAAAAACUAATT against Olfr93, for which the z-score is inactive: -0.145.
On to GGGAGUUCAAGCCAGUUAUTT against Slc46a1, for which the z-score was inactive: -0.629.
Regarding GGACCUACAUAACAAGCUUTT against Thnsl2, the z-score is inactive: 1.83.
Regarding GCACUGAGCUGUGAAAACATT against Mzf1, the z-score was inactive: 0.179.
In the case of GCCAAAUGUGCGUCAUCUATT against Zdhhc25, the z-score was active: -2.54.
Consider GACGGACUGUCCUCUAACGTT against Baalc, for which the z-score was inactive: -0.823.
For GGGAUGCAUUAUUAUUUACTT against Heg1 the value was inactive: 1.39; for GGCUGAAAAUUCCAGACUGTT against Krt39, inactive: -1.22; for CCCUGACCGAAACCCUCGCTT against LOC547349, inactive: 0.153.
For the sequence GGAAGAGAAGGAGAAUGAATT against Patl2, the z-score is inactive: -0.152.
As for CGACCAUUCCUUUGAGUUATT against Atl1, the z-score is active: 3.09.
On to GCAAAAAGGCAGUAUUCUATT against Atp23, for which the z-score was inactive: 0.449.
Then GGAAACAACCAUCGAGGUUTT against Cyp4x1, with inactive: -0.31.
As for CGUGAACAUUUCCUACAUATT against Ces3b, the z-score is inactive: 0.584.
For the sequence GGAGAGAUGGUGGAUUAUATT against Col13a1, the z-score is inactive: 1.15.
As to GCAGCCUCGUUUAACUAAATT against Gpbp1, the z-score is inactive: -0.802.
Turning to GCAUAAGCCACACCCUCUGTT against Cops7a, the z-score is inactive: 1.03.
CGUAUAUGUAUGCUACAUATT against Cend1: the z-score was inactive: -0.805.
In the case of GGUGGACUCGCUGAAGAGUTT against Krt1, the z-score was inactive: -1.31.
For “GGAUGCUUAUGAGGAAAUATT against 1700019D03Rik”, the z-score was inactive: -1.72.
Then GGAACUAUGCCUCUCGUAUTT against Th, with inactive: -0.67; and GGAAGAGCUGAGAUUCGCCTT against Atf3, with inactive: -0.511; and GGGAAUGACUCCACAUUGCTT against Limd1, with active: 2.01.
For the sequence CGUGGUUGUUACCUCCACATT against Stfa2l1, the z-score was inactive: -0.411.
Then GGUGGAUCAGGAAGUGAACTT against Itgb8, with inactive: -0.316; and GACCCUUGUUCUUAGCCUUTT against Defa-rs2, with inactive: 1.1; and GGUGACUUUCUUUAAUCAGTT against Nt5c, with inactive: -1.04.
For GUGUGUGAUGUUCCCUAUGTT against H2-K1, the z-score is inactive: -0.604.
Take GCACCUGUAGUUUUAAGCGTT against Traf3: the z-score was inactive: -0.144.
With CCUUUACGAACCUUCUGUCTT against Tmem237, the z-score is inactive: -1.11.
For CCAUGACUACAACACAUACTT against Ndufv3 the value was active: -3.07; for CCCUACAUUCUGUAUAGCCTT against Olfr474, inactive: 1.05; for GAGCUGUUGUAUCAACUCUTT against Gm10037, inactive: -0.0127.
As to GGUGAGAAAGAUUGAGAUUTT against Pdgfb, the z-score was inactive: -0.163.
Take GGCUGUCAUCAUGUUGGUUTT against Slc5a4a: the z-score was inactive: -0.336.
For the sequence GGUAAAAUGUACUCAAUGUTT against Hexim1, the z-score was inactive: 0.366.
Then GAAAUGUUUGACACAACCUTT against Raet1b, with inactive: 0.69.
Consider GCAGUUACAGGAAAUCGAGTT against Cdr2, for which the z-score is inactive: -0.746.
As to GCCAUCUAGCUACUGACACTT against Tubb3, the z-score was inactive: 0.681.
For the sequence GGGAUCAGUCUACACGUCGTT against Irx2, the z-score was inactive: -1.32.
Consider GGACAACAAGGCUUGCUACTT against Plxna2, for which the z-score is inactive: 0.215.
With GGUGACCUAUGCAUAUAUCTT against Septin11, the z-score is inactive: 0.395.
GGGCAUCUCAGAUUUAGCUTT against Cct3: the z-score is inactive: -0.0572.
Then CCUCAUGGUGAUGAUAUCCTT against Taar6, with inactive: -1.35; and CCACUUUAAAGGCUCUUCUTT against H3c8, with active: -2.17.
As to GGUAUGUAGGAAUUACAGUTT against AI606181, the z-score is active: 2.49.
Regarding CCAUAAAAUCAUCAUGAGATT against Atg12, the z-score is inactive: -0.682.
As for GCCUCAAAAGACAAGGUGUTT against Prr14, the z-score was inactive: -0.0313.
In the case of GGCUAAGUUUUUAAAGAACTT against Ncald, the z-score was inactive: -1.25.
Consider GGACUAUUACACAUUAGUGTT against Rbp3, for which the z-score was inactive: -1.41.
Then CCAACAAGCCUAAUUAAAGTT against Thumpd3, with inactive: -0.896; and GGUGGCUGUAAAGAAGUUATT against Map3k20, with inactive: 0.513; and GGAAGACCUUCUUAAACACTT against Prokr2, with inactive: 1.26.
Take GCCACGUACAUCCACUCUCTT against Pxmp4: the z-score is inactive: -0.773.
Then GGAGUAUUUAUCAACGGCATT against Pax3, with inactive: -1.07; and GGAUAGGAAGAAAAUGAAGTT against Slfn2, with active: -2.83; and CCUUUUUCGGCUUGUAUAATT against Fasl, with inactive: 0.769.
As for GGUCAAAGAUGGAGUAAAUTT against Tmem87a, the z-score was active: -2.31.
In the case of GGGCAUCUCUCCUGAAUACTT against Mbip, the z-score is inactive: 0.00751.
With CGAUCAUAUACAGACACAUTT against Ms4a4d, the z-score is inactive: 1.7.
As for GCCACAGAGCUAGACUGUCTT against Wdr86, the z-score is inactive: 0.241.
As for GGAAACAUCGCCUCAAACATT against Gjb4, the z-score was inactive: -0.332.
GCCCUGUUCCAAAUGUAACTT against BC061195: the z-score was inactive: 0.255.
As for CGUAGUCAUUACUCUAAUATT against Capns1, the z-score is inactive: 0.892.
For the sequence GGAGCAUGAUCCUUCAUAATT against Armc12, the z-score is inactive: 1.96.
